Source: PubChem BioAssay AID2685 (National Center for Advancing Translational Sciences (NCATS), 2010)
Several values for one entry are separate records, joined by “and”; a condition that tells them apart may be missing. Identical values can stand only once. This is one part of the list. Shown are side measurements of this screen, not its main read-out; they come without a call. Most of these compounds were active or inconclusive in the main read-out, so they are no random draw. The note in brackets gives the kind of curve behind each potency; many fits are weak.

Experiment: qHTS Assay for Lipid Storage Modulators in Drosophila S3 Cells;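 as to cell number change: cells counted by Cell Tracker Red CMTPX staining in the red channel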
Conditions: BODIPY lipid droplet fluorescence, 18-24 h; for cell number change: measured here: cell count max response, cells fed with added oleic acid
Summary of the method: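 Laser-scanning cytometry quantifies lipid droplet accumulation (500–530 nm total intensity; droplet/cell object ratio) in oleic acid-fed (400 uM added) Drosophila S3 cells treated with a concentration series. 20 uM Triacsin C defined 100% inhibition.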

[1] = measured here: lipid fluorescence (Fed channel) AC50, cells fed with added oleic acid
[2] = measured here: cell number channel AC50, cells fed with added oleic acid

SMILES	cell number change	AC50 [1]	AC50 [2]
Cn1cnnc1SCC(=O)Nc1ccc(S(=O)(=O)N2CCOCC2)cc1	10.9%	0.58 µM [rising, full curve, poor fit]	
COc1ccc(NC(=O)CSCC(=O)Nc2cc(Cl)ccc2N2CCCC2)cc1	-25%		0.146 µM [falling, full curve, poor fit]
CC1(C)CC(=O)C=C(Nc2ccccc2C#N)C1	18.9%	5.8 µM [rising, single point]	
Cc1onc(-c2ccccc2)c1C(=O)N/N=C/c1cc(Br)c(Br)o1	33.1%	6.51 µM [rising, single point]	3.66 µM [rising, full curve, poor fit]
O=C(NCc1ccccc1)c1ccc(CN(c2ccccn2)S(=O)(=O)c2ccccc2)cc1		32.6 µM [falling, single point]	
O=C(c1ccco1)N1N=C(c2ccco2)CC1c1ccc(Cl)cc1Cl (stereo not given)	-48.9%	4.11 µM [falling, full curve, poor fit]	16.4 µM [falling, partial curve]
Cc1onc(-c2ccc(Cl)cc2Cl)c1-c1csc(N/N=C/c2ccccc2)n1	6.64%	1.64 µM [rising, partial curve]	
C/C(=N/NS(=O)(=O)c1cccc([N+](=O)[O-])c1)c1ccncc1		0.517 µM [falling, single point]	
Cc1ccnc(NS(=O)(=O)c2ccc(NC(=O)c3ccc(S(=O)(=O)N4CCOCC4)cc3)cc2)n1	-17.9%	1.46 µM [falling, full curve, poor fit]	
CCN1C(=NCCOC)N[C@@H](CCc2ccccc2)[C@H](C(=O)OC)[C@H]1C	-2.69% and 11.6%	29.1 µM [rising, single point]	
COCCNC(=O)/C(C#N)=C/c1ccccc1Br	-46.6%	15.8 µM [falling, single point]	
Cc1ccc(Cl)cc1N1CCN(C(=O)c2ccc3c(c2)CCN3S(C)(=O)=O)CC1	12.5%		
O=C(CN(C(=O)c1csnn1)c1ccc(Br)cc1)NC1CCCCC1	23.8%	29.1 µM [rising, single point]	
O=C(CSc1ccsc1[N+](=O)[O-])N1CCN(c2ccccn2)CC1	44.5%		4.61 µM [rising, full curve, poor fit]
COc1ccccc1C(=O)N1CCN(C(=O)c2oc3ccc(C)cc3c2C)CC1		0.58 µM [rising, single point]	0.58 µM [falling, single point]
O=C(O)Cc1ccc(NC(=O)c2ccc3c(c2)C(=O)N(Cc2ccco2)C3=O)cc1	9.19%	0.206 µM [rising, partial curve, poor fit]	
Cc1ccsc1C(=O)NN=C1CCCCCC1	28.2%	0.58 µM [rising, single point]	
COc1ccc(-c2noc(CN3CCN(c4ccccc4)CC3)n2)cc1	49.4%		6.51 µM [rising, single point]
O=C1c2cccnc2C(=O)N1Cc1ccc(F)cc1S(=O)(=O)NCc1ccco1	9.79%		
Cc1ccc(C2=NN3C(C2)c2ccccc2OC32C(=O)Nc3ccccc32)cc1 (stereo not given)	-37.1%	6.51 µM [rising, single point]	23.1 µM [falling, single point]

SMILES	cell number change	AC50 [1]	AC50 [2]
O=C(NNC(=O)c1ccccc1Cl)c1csc(N2CCOCC2)n1	23%		
COc1ccc(Cl)cc1NC(=O)COc1ccc2c(c1)OCO2	19.3%	0.58 µM [rising, full curve, poor fit]	0.326 µM [rising, full curve, poor fit]
CCN1C(=O)[C@H]2[C@@H](c3ccc(C)cc3)N3C(=O)N(c4cccc(C)c4)C(=O)[C@@]3(Cc3ccccc3)[C@H]2C1=O	-10%		
COCCOc1nc2c(c(=O)n(C)c(=O)n2C)n1CCc1ccccc1	-32.2%		32.6 µM [falling, single point]
CCOC(=O)c1ccc(-n2c(CN3CCC(C(N)=O)CC3)nc3ccc([N+](=O)[O-])cc3c2=O)cc1	14.5%	4.61 µM [rising, single point]	1.84 µM [rising, partial curve]
COc1cc2[nH]c3c(Cl)ncnc3c2cc1OC	26.2%	29.1 µM [rising, single point]	4.11 µM [rising, single point]
Cc1ccc(C(=O)N2CCN(S(=O)(=O)c3ccccc3[N+](=O)[O-])CC2)o1	68.5%	1.3 µM [falling, single point]	14.6 µM [rising, partial curve]
CCCCc1ccc(/C=C2/C(=O)ON=C2c2ccccc2)s1	16.6%	1.16 µM [falling, single point]	0.731 µM [falling, single point]
O=C(COc1ccc(/C=N/NS(=O)(=O)c2ccccc2)cc1)NCCc1ccccc1	-26.6%	18.4 µM [falling, single point]	
COCCCNc1nc2c(c(=O)n(Cc3ccc(OC)cc3)c(=O)n2C)n1C	26.1%	13 µM [rising, partial curve, poor fit]	
CCN1C(=O)C(=O)N(CC(=O)N(C)CC(=O)Nc2ccccc2Cl)C1=O	12.8%	16.4 µM [falling, single point]	
Cc1cc(CC(=O)O)c(C)cc1CC(=O)O	3.66%	8.2 µM [rising, partial curve, poor fit]	
COc1ccc(S(N)(=O)=O)cc1C(=O)NCCCN1CCN(c2ccccc2OC)CC1	17.2%	0.291 µM [falling, full curve, poor fit]	
Cc1cc(C)cc(N(CC(=O)NC2CCCCC2)C(=O)CCCC(=O)Nc2ccccn2)c1	16.2%	29.1 µM [rising, single point]	
CC1CN(S(=O)(=O)c2cccs2)CC(C)O1 (stereo not given)	-5.49%		
O=S(=O)(c1ccc2c(c1)CCN2)N1CCCC1	2.32%	0.013 µM [rising, full curve, poor fit]	
Cc1ccc(/C=N/NC(=O)c2nnn(-c3nonc3N)c2-c2cccs2)cc1		18.4 µM [rising, partial curve]	
O=c1c(Br)c(N2CCCC2)cnn1-c1ccccc1	-16.4%		
COc1ccc2c(c1)c(=O)oc1c(C)c(OCc3ccc(C(=O)O)cc3)ccc12	16.5%	29.1 µM [rising, partial curve, poor fit]	
FC(F)(F)c1cccc(NC(=S)Nc2ccc(Cl)c(Cl)c2)c1	-60%		29.1 µM [falling, single point]

SMILES	cell number change	AC50 [1]	AC50 [2]
COc1ccc(CCN=C(N)NS(=O)(=O)c2cccs2)cc1OC	-9.97%	0.00461 µM [falling, full curve, poor fit]	
CCc1nc2nc(C)cc(Nc3cccc(C(F)(F)F)c3)n2n1	-8.32%	2.91 µM [rising, partial curve]	
Cc1cccc(OCC(=O)Nc2ccc(N3CCN(C(=O)c4ccccc4)CC3)cc2)c1		3.66 µM [rising, full curve]	
O=C1COc2ccc(C(=O)COC(=O)c3cccnc3Cl)cc2N1			2.06 µM [rising, partial curve, poor fit]
CCCc1cc(-c2nc(-c3ccc(Cl)cc3)cs2)ccn1	-25.9%	16.4 µM [falling, single point]	
O=C(c1cc2ccccc2oc1=O)N1CCN(c2ncccn2)CC1		6.51 µM [rising, single point]	
COc1ccc(CN(C(=O)CN2C(=O)c3ccccc3S2(=O)=O)C(C(=O)NCC2CCCO2)c2ccncc2)cc1 (stereo not given)	23.8%	6.51 µM [falling, single point]	2.06 µM [falling, partial curve]
CCOC(=O)c1nc(C)sc1-c1ccnn1S(=O)(=O)c1ccc(C)cc1	-45.6%	20.6 µM [falling, single point]	
O=C(O)CSC(=S)N1CCCCC1	-26.5%	2.31 µM [rising, partial curve, poor fit]	6.51 µM [rising, partial curve, poor fit]
O=C(Nc1cccc(Cl)c1)NC1CC2CCC1C2 (stereo not given)	-23%	29.1 µM [falling, single point]	
CC(=O)c1ccc(NC(=O)C2CC(=O)N(C(C)C)C2)cc1 (stereo not given)	27.4%		0.13 µM [falling, full curve, poor fit]
COC(=O)c1cc(-c2ccc(Br)cc2)on1	-12.8%		
O=C(N/N=C/c1ccc(OC(=O)c2ccccc2Br)cc1)c1ccccn1	36.2%	2.31 µM [rising, partial curve]	3.66 µM [rising, partial curve, poor fit]
CCOc1ccccc1N1C(=O)CC(Nc2ccc(N3CCOCC3)cc2)C1=O (stereo not given)	-20.4%	0.291 µM [rising, partial curve, poor fit]	
Cc1cccc(N=C2NN=C(c3ccccc3F)CS2)c1C	17.6%	0.731 µM [falling, single point]	
CC(=O)c1cnc2n(c1=O)CCS2	-37.7%	0.231 µM [falling, full curve]	0.00517 µM [falling, full curve, poor fit]
COC(=O)c1cc(=O)nc2sc3cc(OC)ccc3n12	-1.09%	2.06 µM [rising, partial curve]	
COc1ccc(C(=O)N(CC(=O)NC(C)(C)C)c2ccc3c(c2)OCCO3)cc1OC	10.2%	0.00517 µM [rising, full curve, poor fit]	
